Results: patent publication US20220287935A1, “CANNABINOID-CONTAINING SKIN CARE COMPOSITIONS” (Cannasmetics Ltd., priority 2021, published 2022)
Some results were stated once for a whole list of compounds, not compound by compound.

System: IL6 secretion from LPS-stimulated THP-1 cells
Assay: IL6 secretion from LPS-stimulated THP-1 cells (HTRF)
Format: cell-based, Human
Conditions: each alone, highest concentration; FIG. 5A
Method: Human THP-1 monocytes were seeded in a 96-well plate (Eppendorf) at a density of 3×10^5 cells/well (n=4) in 100 μl cell specific media and was differentiated using phorbol-12-myristate 13-acetate (PMA) (Sigma-Aldrich) at a final concentration of 200 nM. PMA supplemented media was removed after 72 hours. Cells were then washed twice with PBS and rested in fresh PMA-free media for further 24 hours in order to obtain phenotypic characteristics of macrophages (Daigneault et al., 2010, PLoS One, 5, e8668).
After 24 hours, cells were stimulated by Lipopolysaccharides (LPS) at a final concentration of 1μg/ml and were treated with the samples using specific media containing 5% FBS (100 μL of media solution containing the tested materials at the indicated concentration; see, Example 1).
After 24 hours, the cells supernatants were harvested and diluted up to 5 times in working media to avoid the hook effect. HTRF assays were performed in white 96-well plate (CisBio Bioassays) with a total working volume of 20 μL. […]
After 2 hours incubation, HTRF signals were measured using SPARK® multimode microplate reader with an excitation filter at 320 nm and fluorescence wavelength measurement at 620 and 665 nm, an integration delay of 60 μs and an integration time of 400 μs. Results were analyzed with a two-wavelength signal ratio: [intensity (665 nm)/intensity (620 nm)]*104. […]

SMILES | reduction of IL-6 secretion
CCCCCc1cc(O)c(C/C=C(\C)CCC=C(C)C)c(O)c1 [CBG, cannabigerol] | more than 50%
C=C(C)[C@@H]1CCC(C)=C[C@H]1c1c(O)cc(CCCCC)cc1O [CBD, cannabidiol] | more than 50%
